No constants are given. Whether binding was seen depends on the method and setting. Binding seen in cells or lysates may run through a third protein. Some entries that bind do so weakly or less than the wild type.
Target: T1, LGP2 (laboratory genetics and physiology 2), wild type, expressed from pCAGGS in 293T cells (human) (UniProt Q96C10)
T1 sequence: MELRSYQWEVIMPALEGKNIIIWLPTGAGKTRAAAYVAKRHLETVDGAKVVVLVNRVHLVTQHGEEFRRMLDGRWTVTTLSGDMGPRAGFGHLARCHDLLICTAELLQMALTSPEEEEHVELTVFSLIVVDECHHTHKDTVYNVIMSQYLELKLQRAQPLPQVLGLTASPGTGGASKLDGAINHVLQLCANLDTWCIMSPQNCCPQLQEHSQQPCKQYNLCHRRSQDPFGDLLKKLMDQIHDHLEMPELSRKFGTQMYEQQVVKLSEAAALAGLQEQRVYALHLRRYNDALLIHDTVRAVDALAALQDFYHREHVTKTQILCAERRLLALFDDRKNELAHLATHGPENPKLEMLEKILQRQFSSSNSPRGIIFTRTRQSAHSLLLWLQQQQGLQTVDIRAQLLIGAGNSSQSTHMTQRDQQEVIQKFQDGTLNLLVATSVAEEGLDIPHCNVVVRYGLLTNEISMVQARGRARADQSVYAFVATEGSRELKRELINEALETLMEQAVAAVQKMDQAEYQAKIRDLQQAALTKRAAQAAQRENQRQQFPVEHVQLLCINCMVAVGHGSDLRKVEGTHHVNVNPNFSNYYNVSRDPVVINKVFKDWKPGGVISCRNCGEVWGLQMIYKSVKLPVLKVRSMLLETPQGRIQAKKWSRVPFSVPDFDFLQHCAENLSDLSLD
Assay: co-IP

Sequences of proteins named here, by UniProt entry; tags and fusion partners are left off.
UniProt Q9UPY3: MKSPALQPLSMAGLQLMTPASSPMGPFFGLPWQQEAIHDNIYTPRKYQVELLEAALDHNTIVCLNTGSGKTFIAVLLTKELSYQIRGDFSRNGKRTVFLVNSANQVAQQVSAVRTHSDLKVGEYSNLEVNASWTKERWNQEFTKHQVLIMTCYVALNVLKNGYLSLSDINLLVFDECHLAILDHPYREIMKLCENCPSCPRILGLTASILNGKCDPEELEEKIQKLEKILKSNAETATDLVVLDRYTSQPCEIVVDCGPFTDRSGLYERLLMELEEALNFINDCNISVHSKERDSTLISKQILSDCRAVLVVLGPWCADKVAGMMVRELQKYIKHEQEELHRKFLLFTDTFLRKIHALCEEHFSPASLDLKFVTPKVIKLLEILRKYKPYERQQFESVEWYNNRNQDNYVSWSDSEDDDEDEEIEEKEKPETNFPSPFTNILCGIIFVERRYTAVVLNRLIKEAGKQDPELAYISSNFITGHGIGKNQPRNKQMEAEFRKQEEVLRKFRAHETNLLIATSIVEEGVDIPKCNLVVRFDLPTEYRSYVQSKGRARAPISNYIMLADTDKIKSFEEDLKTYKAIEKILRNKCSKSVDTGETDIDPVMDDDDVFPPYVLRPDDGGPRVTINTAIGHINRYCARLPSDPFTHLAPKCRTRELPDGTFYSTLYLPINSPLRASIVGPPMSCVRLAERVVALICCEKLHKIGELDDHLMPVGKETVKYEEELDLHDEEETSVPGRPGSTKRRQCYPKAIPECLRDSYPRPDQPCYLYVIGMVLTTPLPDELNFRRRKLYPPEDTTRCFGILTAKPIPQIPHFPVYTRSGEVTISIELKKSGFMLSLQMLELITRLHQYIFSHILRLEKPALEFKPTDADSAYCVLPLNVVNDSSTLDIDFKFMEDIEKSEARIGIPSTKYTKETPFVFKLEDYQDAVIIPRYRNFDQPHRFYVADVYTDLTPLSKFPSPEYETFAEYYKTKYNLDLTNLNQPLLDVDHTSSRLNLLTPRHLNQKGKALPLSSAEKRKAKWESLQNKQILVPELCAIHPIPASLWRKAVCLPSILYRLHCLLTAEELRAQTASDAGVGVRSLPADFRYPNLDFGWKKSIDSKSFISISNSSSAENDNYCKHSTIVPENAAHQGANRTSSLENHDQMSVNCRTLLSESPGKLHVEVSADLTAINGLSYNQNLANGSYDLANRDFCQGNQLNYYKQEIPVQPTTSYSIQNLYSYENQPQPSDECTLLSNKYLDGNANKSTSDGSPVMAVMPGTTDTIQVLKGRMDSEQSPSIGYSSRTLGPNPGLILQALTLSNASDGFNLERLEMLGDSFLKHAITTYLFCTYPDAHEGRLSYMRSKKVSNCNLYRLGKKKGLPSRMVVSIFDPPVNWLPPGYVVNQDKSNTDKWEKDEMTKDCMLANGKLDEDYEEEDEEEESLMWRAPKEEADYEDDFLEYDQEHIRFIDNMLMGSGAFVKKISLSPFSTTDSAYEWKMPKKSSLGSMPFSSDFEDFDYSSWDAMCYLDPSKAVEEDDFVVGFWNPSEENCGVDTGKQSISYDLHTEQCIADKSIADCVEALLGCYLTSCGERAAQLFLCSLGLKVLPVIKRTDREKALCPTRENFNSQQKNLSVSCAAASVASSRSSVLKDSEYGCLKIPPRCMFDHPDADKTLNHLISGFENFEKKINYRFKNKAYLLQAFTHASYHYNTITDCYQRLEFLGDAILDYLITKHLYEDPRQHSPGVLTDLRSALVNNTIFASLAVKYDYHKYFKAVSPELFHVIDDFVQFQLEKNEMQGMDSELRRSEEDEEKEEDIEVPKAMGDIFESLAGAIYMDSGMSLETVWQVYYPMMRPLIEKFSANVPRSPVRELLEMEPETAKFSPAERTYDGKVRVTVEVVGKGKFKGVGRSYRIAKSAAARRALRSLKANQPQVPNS

- binding: binds
Substance: Dicer (from UniProt Q9UPY3 1-1922)
